{"sequences": {"note": "Sequences of proteins named here, by UniProt entry; tags and fusion partners are left off. A change or cut given only in a name is not applied to a line headed by its entry.", "UniProt P9WQA1, whole entry, looked up, stated change not applied": "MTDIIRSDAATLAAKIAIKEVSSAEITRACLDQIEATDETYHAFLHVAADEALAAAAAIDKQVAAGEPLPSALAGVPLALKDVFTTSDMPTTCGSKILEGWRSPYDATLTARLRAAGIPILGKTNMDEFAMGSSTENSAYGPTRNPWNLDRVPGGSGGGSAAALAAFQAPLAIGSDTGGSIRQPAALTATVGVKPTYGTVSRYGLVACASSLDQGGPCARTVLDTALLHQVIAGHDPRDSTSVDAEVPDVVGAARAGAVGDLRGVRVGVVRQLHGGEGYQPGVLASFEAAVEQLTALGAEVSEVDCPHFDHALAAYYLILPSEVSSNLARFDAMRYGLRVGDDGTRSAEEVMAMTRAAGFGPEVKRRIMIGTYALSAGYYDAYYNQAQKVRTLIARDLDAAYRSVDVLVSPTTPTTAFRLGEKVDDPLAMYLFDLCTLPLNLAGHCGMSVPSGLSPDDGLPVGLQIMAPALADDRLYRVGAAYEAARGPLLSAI"}, "source": "paper PMC8406222", "target": "M. tuberculosis GatB with C-terminal 6xHis tag (M. tuberculosis) (UniProt P9WN61)", "assay": "tandem affinity co-purification (Ni-NTA, then Strep-Tactin)", "note": "Results are given in words; binding and its absence hold for the method and conditions named. Some entries that bind do so weakly or less than the wild type.", "data": [{"substance": "M. tuberculosis GatA-K61N (from UniProt P9WQA1 1-494)", "values": [{"measurement": "binding", "value": "binds"}]}]}
